Results taken from paper PMC4963126.
No constants are given. Whether binding was seen depends on the method and setting. In cells and extracts the contact can be indirect. Some entries that bind do so weakly or less than the wild type.

Amino acid sequences for entries named in this document (tags omitted).
UniProt Q8TEW0: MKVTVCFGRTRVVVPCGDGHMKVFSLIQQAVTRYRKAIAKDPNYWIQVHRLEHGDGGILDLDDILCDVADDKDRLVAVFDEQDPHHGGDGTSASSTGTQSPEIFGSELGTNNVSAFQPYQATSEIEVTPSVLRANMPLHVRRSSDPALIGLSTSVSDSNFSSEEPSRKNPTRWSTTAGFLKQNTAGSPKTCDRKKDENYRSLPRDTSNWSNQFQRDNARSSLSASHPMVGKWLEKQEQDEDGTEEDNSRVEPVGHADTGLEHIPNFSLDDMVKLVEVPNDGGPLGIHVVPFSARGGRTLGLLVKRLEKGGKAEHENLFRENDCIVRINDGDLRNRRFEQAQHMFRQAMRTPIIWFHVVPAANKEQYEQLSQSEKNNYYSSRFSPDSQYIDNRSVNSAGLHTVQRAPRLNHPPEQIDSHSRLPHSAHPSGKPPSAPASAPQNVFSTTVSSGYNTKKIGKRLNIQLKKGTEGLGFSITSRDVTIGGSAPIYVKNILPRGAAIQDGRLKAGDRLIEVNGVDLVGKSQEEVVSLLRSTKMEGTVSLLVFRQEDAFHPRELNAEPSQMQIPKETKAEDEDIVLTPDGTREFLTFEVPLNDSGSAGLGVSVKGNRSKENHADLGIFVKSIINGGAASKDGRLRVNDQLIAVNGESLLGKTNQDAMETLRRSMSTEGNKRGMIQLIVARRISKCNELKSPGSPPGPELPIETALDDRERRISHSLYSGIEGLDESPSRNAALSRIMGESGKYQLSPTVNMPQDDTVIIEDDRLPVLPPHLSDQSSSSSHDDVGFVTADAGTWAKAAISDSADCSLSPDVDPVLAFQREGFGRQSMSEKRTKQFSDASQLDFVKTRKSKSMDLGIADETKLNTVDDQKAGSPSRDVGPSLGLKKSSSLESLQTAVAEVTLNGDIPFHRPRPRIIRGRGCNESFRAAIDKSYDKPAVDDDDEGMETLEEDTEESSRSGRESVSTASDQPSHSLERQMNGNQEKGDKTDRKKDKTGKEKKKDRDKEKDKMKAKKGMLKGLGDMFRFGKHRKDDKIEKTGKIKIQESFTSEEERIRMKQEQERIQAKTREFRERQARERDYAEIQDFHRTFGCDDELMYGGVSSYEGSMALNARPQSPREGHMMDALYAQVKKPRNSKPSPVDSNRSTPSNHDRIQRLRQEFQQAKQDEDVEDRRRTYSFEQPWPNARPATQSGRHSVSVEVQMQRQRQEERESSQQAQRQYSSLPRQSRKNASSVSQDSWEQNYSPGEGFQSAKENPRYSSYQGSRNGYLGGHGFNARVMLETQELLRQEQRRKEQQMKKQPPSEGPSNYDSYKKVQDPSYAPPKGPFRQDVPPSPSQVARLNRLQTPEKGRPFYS
UniProt Q9QR71: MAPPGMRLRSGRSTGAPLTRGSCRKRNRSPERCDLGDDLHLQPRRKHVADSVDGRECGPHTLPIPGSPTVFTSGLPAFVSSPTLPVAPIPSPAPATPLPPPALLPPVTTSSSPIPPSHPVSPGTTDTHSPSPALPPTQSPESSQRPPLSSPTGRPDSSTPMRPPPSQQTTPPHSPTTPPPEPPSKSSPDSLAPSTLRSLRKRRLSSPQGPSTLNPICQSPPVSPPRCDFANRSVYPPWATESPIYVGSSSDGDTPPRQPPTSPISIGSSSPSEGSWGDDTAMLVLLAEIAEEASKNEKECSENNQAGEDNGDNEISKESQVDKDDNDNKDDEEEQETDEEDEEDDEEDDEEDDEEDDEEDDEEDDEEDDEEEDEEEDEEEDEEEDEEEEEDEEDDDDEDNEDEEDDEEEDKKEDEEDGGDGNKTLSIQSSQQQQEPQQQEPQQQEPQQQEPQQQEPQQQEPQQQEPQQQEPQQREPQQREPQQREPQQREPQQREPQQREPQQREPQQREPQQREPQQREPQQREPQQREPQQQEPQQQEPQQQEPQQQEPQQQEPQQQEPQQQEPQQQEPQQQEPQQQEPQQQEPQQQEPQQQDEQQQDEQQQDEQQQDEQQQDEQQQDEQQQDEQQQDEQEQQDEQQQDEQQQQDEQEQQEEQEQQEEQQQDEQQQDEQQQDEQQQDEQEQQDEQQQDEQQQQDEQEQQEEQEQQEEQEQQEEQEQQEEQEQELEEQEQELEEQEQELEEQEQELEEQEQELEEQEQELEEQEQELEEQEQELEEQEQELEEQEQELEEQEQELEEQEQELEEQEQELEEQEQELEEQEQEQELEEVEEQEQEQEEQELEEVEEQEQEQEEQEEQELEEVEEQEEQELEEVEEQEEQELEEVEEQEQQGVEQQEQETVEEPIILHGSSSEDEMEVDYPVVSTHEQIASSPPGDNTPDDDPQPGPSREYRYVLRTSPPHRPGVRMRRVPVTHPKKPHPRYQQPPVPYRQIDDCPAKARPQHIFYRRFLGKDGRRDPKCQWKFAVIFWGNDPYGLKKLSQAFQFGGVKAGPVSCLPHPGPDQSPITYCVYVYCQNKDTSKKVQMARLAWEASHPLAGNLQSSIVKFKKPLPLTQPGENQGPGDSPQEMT

Target: Par3, endogenous in KSHV-positive PEL cell lines BC-3 and BCBL1 (human (endogenous in BC-3 and BCBL1)) (UniProt Q8TEW0)
Experiment: co-IP; endogenous immunoprecipitation with Par3 specific polyclonal antibody and isotype control from whole cell lysates of KSHV-positive BC-3 and BCBL1 cells (KSHV-negative BJAB alongside)

LANA, endogenous in KSHV-positive PEL cell lines BC-3 and BCBL1 (from UniProt Q9QR71 1-1129)
binding: binds
